According to patent publication US11318190B2, “Methods and compositions for treating liver disease” (UNITED STATES GOVERNMENT AS REPRESENTED BY THE DEPARTMENT …, priority 2017, dated 2022):
At least one structure is not confirmed: it was looked up by name or label, or the drawing left a doubt.

Columns and labels:
[1] = test system: mouse cholangiocyte cell line (MCC); experiment: Mouse cholangiocyte cell line (MCC) stimulated with free fatty acids for 24 hours; format: cell-based; conditions: for expression levels of TGF-β1, Col1a1, α-SMA and Fn1: vs control
PBC patients = conditions: human, in vivo; cited from earlier work

| Structure (SMILES) | SCT and SR gene expression (real-time PCR) [1] | SCT secretion in to the media (ELISA) [1] | miR-125b and let-7a expression levels [1] | expression levels of TGF-β1, Col1a1, α-SMA and Fn1 [1] | PBC patients unresponsive to treatment (PBC patients) |
| --- | --- | --- | --- | --- | --- |
| CCCCCCCCCCCCCCCCCC(=O)O [stearate] | significant increase | increase | decreased | significant increase |  |
| C[C@H](CCC(=O)O)[C@H]1CC[C@H]2[C@@H]3[C@@H](O)C[C@@H]4C[C@H](O)CC[C@]4(C)[C@H]3CC[C@]12C [UDCA, ursodeoxycholic acid] |  |  |  |  | up to 40% |
| CCCCCCCC/C=C\CCCCCCCC(=O)O [oleate] | but not | but not |  | but not |  |
| CCCCCCCCCCCCCCCC(=O)O [palmitate] | significant increase | increase | decreased | significant increase |  |
